PubChem BioAssay AID1224830 | NIAID | 2016
The deposit covers about 18,000 reagents; shown is a part drawn at random. In the full data, about 2,900 (16%) are marked active. 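Calls are made per well; low scores hint the gene aids the LPS response, high scores that it dampens it.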 Repeated entries: four replicate wells of each siRNA pool.

Test: 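Host factors that control LPS-induced TNF expression in human macrophages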 (primary screen)
Cells: human THP-1 monocytic leukaemia cells, TNF dual-luciferase reporter clone, PMA-differentiated to macrophage-like cells
Reagents: siRNA pool against human genes, 50 nM
Time to read-out: LPS for 4 h, given about 3 days after siRNA transfection
Challenge: bacterial LPS (TLR4 ligand), 10 ng/ml
Read-out: 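TNF firefly reporter luminescence divided by renilla, normalised to the plate median, then turned into a robust z-score for each replicate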
Direction: TNF reporter robust z-score: higher = stronger TNF reporter response to LPS
Active means: 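a well is active when its z-score exceeds 2.8 or falls below -1.5; control wells carry no call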

The opening 5 records as a preview:
gene symbol | TNF reporter robust z-score | call
VOPP1 | 0.28 | inactive
VOPP1 | -0.81 | inactive
VOPP1 | -1.44 | inactive
VOPP1 | -0.45 | inactive
GTF2H4 | -0.9 | inactive

Main list, repeating the preview:
gene symbol | TNF reporter robust z-score | call
VOPP1 | 0.28 | inactive
VOPP1 | -0.81 | inactive
VOPP1 | -1.44 | inactive
VOPP1 | -0.45 | inactive
GTF2H4 | -0.9 | inactive
GTF2H4 | 0.03 | inactive
GTF2H4 | -0.55 | inactive
GTF2H4 | -0.32 | inactive
GIMAP2 | 0.52 | inactive
GIMAP2 | 0.55 | inactive
GIMAP2 | -0.89 | inactive
GIMAP2 | 0.26 | inactive
YWHAH | -0.56 | inactive
YWHAH | -0.91 | inactive
YWHAH | -0.86 | inactive
YWHAH | -0.9 | inactive
TMEM186 | -0.39 | inactive
TMEM186 | 0.62 | inactive
TMEM186 | 0.78 | inactive
TMEM186 | 1.51 | inactive
ZNF485 | 1.66 | inactive
ZNF485 | 2.78 | inactive
ZNF485 | -0.18 | inactive
ZNF485 | 0.69 | inactive
SAMD13 | 0.15 | inactive
SAMD13 | 0.13 | inactive
SAMD13 | 0.5 | inactive
SAMD13 | 0.94 | inactive
KBTBD11 | 0.17 | inactive
KBTBD11 | 2.78 | inactive
KBTBD11 | 0.02 | inactive
KBTBD11 | -0.48 | inactive
ABCC12 | -0.13 | inactive
ABCC12 | -0.73 | inactive
ABCC12 | -0.45 | inactive
ABCC12 | 0.74 | inactive
TMEM259 | 0.11 | inactive
TMEM259 | 0.25 | inactive
TMEM259 | 0.63 | inactive
TMEM259 | -1.03 | inactive
GTF2F2 | -0.59 | inactive
GTF2F2 | 0.44 | inactive
GTF2F2 | -0.65 | inactive
GTF2F2 | 0.2 | inactive
RAB33A | -0.04 | inactive
RAB33A | 0.22 | inactive
RAB33A | 1.01 | inactive
FA2H | -0.53 | inactive
FA2H | -0.71 | inactive
FA2H | -0.93 | inactive
FA2H | -0.23 | inactive
SLC2A11 | 2.03 | inactive
SLC2A11 | 3.36 | active
SLC2A11 | 1.17 | inactive
SLC2A11 | 1.53 | inactive
HAVCR2 | -0.9 | inactive
HAVCR2 | 0.09 | inactive
HAVCR2 | -0.71 | inactive
HAVCR2 | 0.43 | inactive
ZFP14 | 0.14 | inactive
ZFP14 | 0.58 | inactive
ZFP14 | 1.68 | inactive
ZFP14 | 0.1 | inactive
GPR20 | -0.71 | inactive
GPR20 | -0.6 | inactive
GPR20 | -1.09 | inactive
GPR20 | -0.37 | inactive
ZBED8L | 0.44 | inactive
ZBED8L | 0.34 | inactive
ZBED8L | -0.03 | inactive
ZBED8L | -0.47 | inactive
ADH6 | 1.04 | inactive
ADH6 | 2 | inactive
ADH6 | 0.73 | inactive
ADH6 | 2.55 | inactive
SLC2A1 | -1.72 | active
SLC2A1 | -1.11 | inactive
SLC2A1 | -1.51 | active
ELMO3 | -1.43 | inactive
ELMO3 | -0.53 | inactive
ELMO3 | -0.86 | inactive
ELMO3 | -0.87 | inactive
SAR1B | 1.27 | inactive
SAR1B | 0.57 | inactive
SAR1B | 1.78 | inactive
SAR1B | 0.23 | inactive
TUBA4A | -1.32 | inactive
TUBA4A | -0.99 | inactive
TUBA4A | 0.11 | inactive
TUBA4A | -0.88 | inactive
TEC | -1.01 | inactive
TEC | -0.44 | inactive
TEC | 0.16 | inactive
TEC | 1 | inactive
KCTD17 | -1.39 | inactive
KCTD17 | -1.71 | active
KCTD17 | -1.61 | active
KCTD17 | -1.83 | active
ARMC2 | -1.09 | inactive
ARMC2 | -0.93 | inactive
ARMC2 | -0.83 | inactive
ARMC2 | -0.8 | inactive
PPAN-P2RY11 | 1.79 | inactive
PPAN-P2RY11 | 2.76 | inactive
PPAN-P2RY11 | 1.45 | inactive
PPAN-P2RY11 | 0.24 | inactive
OR2B6 | 0.84 | inactive
OR2B6 | 1.26 | inactive
OR2B6 | -0.5 | inactive
OR2B6 | -1.26 | inactive
ZBTB11 | -1.05 | inactive
ZBTB11 | -0.7 | inactive
ZBTB11 | -1.44 | inactive
ZBTB11 | -0.48 | inactive
DHX33 | 0.02 | inactive
DHX33 | -0.85 | inactive
DHX33 | -0.37 | inactive
DHX33 | -0.68 | inactive
ZNF512 | 1.88 | inactive
ZNF512 | 1.45 | inactive
ZNF512 | -1.17 | inactive
ZNF512 | -0.69 | inactive
SC5D | -1.63 | active
SC5D | -1.3 | inactive
SC5D | -1.51 | active
SC5D | -1.26 | inactive
ATP7B | -0.26 | inactive
ATP7B | 0.32 | inactive
ATP7B | 0.56 | inactive
ATP7B | 0.26 | inactive
RAP1B | 0.46 | inactive
RAP1B | 0.22 | inactive
RAP1B | 1.98 | inactive
RAP1B | -0.12 | inactive
PLXND1 | 0.44 | inactive
PLXND1 | 0.28 | inactive
PLXND1 | 0.47 | inactive
PLXND1 | 0.55 | inactive
TCTN3 | -0.93 | inactive
TCTN3 | 0.41 | inactive
TCTN3 | -0.25 | inactive
TCTN3 | 0.48 | inactive
